# Data taken from PubChem BioAssay AID588590 (National Center for Advancing Translational Sciences (NCATS), 2011).
# Sequences of proteins named here, by UniProt entry; tags and fusion partners are left off. A change or cut given only in a name is not applied to a line headed by its entry.
# UniProt Q9UNA4: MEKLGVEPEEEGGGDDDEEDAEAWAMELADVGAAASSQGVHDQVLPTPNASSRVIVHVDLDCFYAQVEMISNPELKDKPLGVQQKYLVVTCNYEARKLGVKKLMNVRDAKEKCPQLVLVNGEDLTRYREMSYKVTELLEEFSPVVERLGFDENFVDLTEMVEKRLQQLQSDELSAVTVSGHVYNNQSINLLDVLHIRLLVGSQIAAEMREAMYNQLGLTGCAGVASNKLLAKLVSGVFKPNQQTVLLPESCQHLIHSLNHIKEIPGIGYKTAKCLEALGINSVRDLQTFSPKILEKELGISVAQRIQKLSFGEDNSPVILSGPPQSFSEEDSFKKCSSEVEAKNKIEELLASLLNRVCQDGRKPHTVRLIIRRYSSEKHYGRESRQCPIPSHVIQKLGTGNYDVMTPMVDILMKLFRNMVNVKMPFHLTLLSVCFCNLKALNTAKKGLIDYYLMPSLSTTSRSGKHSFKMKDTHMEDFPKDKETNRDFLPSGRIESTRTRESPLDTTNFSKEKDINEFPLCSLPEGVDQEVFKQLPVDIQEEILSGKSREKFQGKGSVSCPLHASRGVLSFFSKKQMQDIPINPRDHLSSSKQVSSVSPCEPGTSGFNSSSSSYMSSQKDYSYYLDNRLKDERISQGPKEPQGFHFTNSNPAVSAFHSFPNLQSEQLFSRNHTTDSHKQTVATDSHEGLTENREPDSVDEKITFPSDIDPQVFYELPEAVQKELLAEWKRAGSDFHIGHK
# The whole screen tested about 390,000 compounds, of which about 4,000 (1%) were called active. Inconclusive means that the source gave no clear call. Such entries were picked first, then a sample of the others. The call rests on the fitted dose curve; in most records, active means well fitted inhibition curve with a large enough effect; inconclusive means small, poorly fitted or top-dose-only effect, or another doubt; inactive means no such curve, though single readings can be large or run the other way. Potencies of inconclusive entries are doubtful fits and often do not repeat.
# Molecular target: DNA polymerase iota (Homo sapiens) (UniProt Q9UNA4)
# Experiment: qHTS for Inhibitors of Polymerase Iota
# Conditions: Pol iota fluorescent replication assay, 10 min; series mostly up to 115 µM
# Procedure, shortened: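 Pol iota at 10 nM preincubated 15 min with compounds at room temperature; reaction started with fluorescent substrate, 50 nM final. Fluorescence read kinetically at 0 and 10 min; buffer-only wells as negative control.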
# Potency means the concentration at half of the fitted maximal effect.
row,SMILES,Potency
1,COc1cc(CCC(=O)OCC(=O)Nc2ncc(Cl)cc2Cl)cc(OC)c1OC,"inconclusive: 20 µM [inhibitor, full curve, poor fit]"
2,CC1CCC(C(C)C)C2=C1C(C#N)(C#N)C(C#N)(C#N)C(c1ccccc1)N2 (centres undefined),"inconclusive: 22.4 µM [inhibitor, partial curve, poor fit]"
3,CNc1ccc(Br)cc1C(O)c1ccccc1 (centres undefined),"inconclusive: 44.7 µM [inhibitor, partial curve, poor fit]"
4,COC(=O)c1ccc(NC(=O)CC2C(=O)N(c3ccccc3)C(=O)N2C2CCCC2)cc1 (centres undefined),inactive
5,CSCC[C@H](NC(=O)N1CCn2c1nc1ccccc12)C(=O)NCc1ccco1,"inconclusive: 50.1 µM [inhibitor, partial curve, poor fit]"
6,O=C(NC1CCCc2ccccc21)c1cccc(S(=O)(=O)N2CCOCC2)c1 (centres undefined),inactive
7,CC1(C)S[C@@H]2[C@H](NC(=O)[C@H](N)c3ccccc3)C(=O)N2[C@H]1C(=O)OC1OC(=O)c2ccccc21 (some centres undefined),"inconclusive: 44.7 µM [inhibitor, partial curve, poor fit]"
8,Cc1cccc(C)c1NC(=O)CSCC(=O)c1ccc(O)c(O)c1,active: 20 µM
9,COc1ccc(CNc2ccccc2C(=O)NCc2ccccc2)cc1COc1ccc(NC(C)=O)cc1,inactive
10,COc1ccccc1NC(=S)N(Cc1ccco1)Cc1cc2cc(C)c(C)cc2[nH]c1=O,"inconclusive: 28.2 µM [inhibitor, partial curve, poor fit]"
11,CCn1c(SCC(=O)O)nc2sc3c(c2c1=O)CCC3,"inconclusive: 50.1 µM [inhibitor, partial curve, poor fit]"
12,CC1CCCCN1CC(=O)Nc1ccccc1Sc1ccccc1 (centres undefined),"inconclusive: 100 µM [inhibitor, partial curve, poor fit]"
13,Cc1ccc(Nc2c(-c3ccc(C)s3)nc3cccc(C)n23)cc1,inactive
14,Cc1ccc(-n2c(SCC(=O)NCc3ccco3)nc3sc4c(c3c2=O)CC(C)(C)SC4)cc1,"inconclusive: 3.55 µM [inhibitor, full curve, poor fit]"
15,COCCOC(=O)C1=C(C)NC(C)=C(C(=O)OC(C)C)C1c1cccc([N+](=O)[O-])c1 (centres undefined),"inconclusive: 50.1 µM [inhibitor, partial curve, poor fit]"
16,C=CCn1c2ccccc2c2nnc(SCCN3CCCCC3)nc21,"inconclusive: 28.2 µM [inhibitor, partial curve, poor fit]"
17,NCCS,"inconclusive: 11.2 µM [inhibitor, partial curve, poor fit]"
18,COc1ccc(-n2nnnc2C2CCN(S(=O)(=O)c3cccc(Cl)c3C)CC2)cc1,inactive
19,C=CCNc1sc(C(=O)c2cccs2)c(N)c1C#N,"inconclusive: 31.6 µM [inhibitor, partial curve, poor fit]"
20,CCOC(=O)c1cccc(NC(=O)CSc2nnc(-c3cccnc3)n2C)c1,"inconclusive: 39.8 µM [inhibitor, single point]"

# Given with bars between the fields: ten of the compounds above.
row | SMILES | Potency
5 | CSCC[C@H](NC(=O)N1CCn2c1nc1ccccc12)C(=O)NCc1ccco1 | inconclusive: 50.1 µM [inhibitor, partial curve, poor fit]
6 | O=C(NC1CCCc2ccccc21)c1cccc(S(=O)(=O)N2CCOCC2)c1 (centres undefined) | inactive
7 | CC1(C)S[C@@H]2[C@H](NC(=O)[C@H](N)c3ccccc3)C(=O)N2[C@H]1C(=O)OC1OC(=O)c2ccccc21 (some centres undefined) | inconclusive: 44.7 µM [inhibitor, partial curve, poor fit]
8 | Cc1cccc(C)c1NC(=O)CSCC(=O)c1ccc(O)c(O)c1 | active: 20 µM
9 | COc1ccc(CNc2ccccc2C(=O)NCc2ccccc2)cc1COc1ccc(NC(C)=O)cc1 | inactive
10 | COc1ccccc1NC(=S)N(Cc1ccco1)Cc1cc2cc(C)c(C)cc2[nH]c1=O | inconclusive: 28.2 µM [inhibitor, partial curve, poor fit]
11 | CCn1c(SCC(=O)O)nc2sc3c(c2c1=O)CCC3 | inconclusive: 50.1 µM [inhibitor, partial curve, poor fit]
12 | CC1CCCCN1CC(=O)Nc1ccccc1Sc1ccccc1 (centres undefined) | inconclusive: 100 µM [inhibitor, partial curve, poor fit]
13 | Cc1ccc(Nc2c(-c3ccc(C)s3)nc3cccc(C)n23)cc1 | inactive
14 | Cc1ccc(-n2c(SCC(=O)NCc3ccco3)nc3sc4c(c3c2=O)CC(C)(C)SC4)cc1 | inconclusive: 3.55 µM [inhibitor, full curve, poor fit]

# Next results

row,SMILES,Potency
1,CC(=O)c1ccc(N2CCN(c3ncc(C(F)(F)F)cc3Cl)CC2)cc1,"inconclusive: 79.4 µM [inhibitor, partial curve, poor fit]"
2,CS(=O)(=O)c1ccccc1C(=O)Nc1ccc(-c2nc3ccccc3[nH]2)cc1,inactive
3,CCN1CCN(C(=O)N(c2ccccc2)c2ccccc2)CC1,"inconclusive: 89.1 µM [inhibitor, single point]"
4,COc1ccc(N2CSC3=C(C#N)C(c4cccs4)CC(=O)N3C2)cc1 (centres undefined),inactive
5,C/C=C(\C)C(=O)OC1CC(C)(C)C[C@H]2C3=CC[C@@H]4[C@@]5(C)CCC(O[C@@H]6O[C@@H](C(=O)O)[C@@H](O)C(O[C@@H]7OC[C@H](O)[C@@H](O)[C@@H]7O[C@@H]7OC(CO)C(O)[C@@H](O)[C@@H]7O)C6O[C@@H]6OC(CO)C(O)C(O)C6O)[C@@](C)(CO)[C@@H]5CC[C@]4(C)[C@]3(C)CC(O)[C@@]12CO (some centres undefined),active: 12.6 µM
6,O=c1oc2cc(O)ccc2c2ccccc12,inactive
7,Cc1ccc(NC(=S)NNc2ccc(C(=O)O)cc2[N+](=O)[O-])cc1C,"inconclusive: 17.8 µM [inhibitor, partial curve, poor fit]"
8,Cn1cncc1C#Cc1c(C=O)n(C)c2ccccc12,"inconclusive: 63.1 µM [inhibitor, partial curve, poor fit]"
9,Cc1cccc(N2C(=O)CSC23C(=O)N(CC(=O)NCCc2ccccc2)c2ccccc23)c1 (centres undefined),"inconclusive: 89.1 µM [inhibitor, single point]"
10,O=C(CSc1nnc(-c2cccs2)o1)Nc1cccc(C(F)(F)F)c1,"inconclusive: 89.1 µM [inhibitor, single point]"
11,CCOC(=O)c1nc2sc3c(c2c(=O)n1C(C)C(=O)OCC)CCCC3 (centres undefined),inactive
12,CC(=O)c1ccc(S(=O)(=O)Nc2ccc(C(=O)NCC(c3ccccc3)N(C)C)cc2)cc1 (centres undefined),"inconclusive: 14.1 µM [inhibitor, full curve, poor fit]"
13,O=[N+]([O-])c1ccc(COc2cccc(CN3CCCCC3)c2)cc1,inactive
14,Cc1ccc(-c2nc3ccccc3[nH]2)cc1NC(=S)NC(=O)c1ccccc1Br,"inconclusive: 2.51 µM [inhibitor, partial curve, poor fit]"
15,Cc1cccc(-n2c3nc(=O)[nH]c(=O)c-3cc3cc([N+](=O)[O-])ccc32)c1,"inconclusive: 15.8 µM [inhibitor, full curve, poor fit]"
16,O=C1CC(c2ccccc2)C(C(=O)Nc2ccccc2F)N1 (centres undefined),inactive
17,CN(c1ccccc1)S(=O)(=O)c1ccc2c(c1)OCCO2,"inconclusive: 56.2 µM [inhibitor, partial curve, poor fit]"
18,CCOC(=O)CSc1nc2sc3c(c2c(=O)n1CC)CCCC3,"inconclusive: 56.2 µM [inhibitor, partial curve, poor fit]"
19,CCOc1ccc2nc(NC(=O)CSc3ccccc3)sc2c1,"inconclusive: 3.16 µM [inhibitor, partial curve, poor fit]"
